Data as given in patent publication US5633346 (dated 1997).
Strings that start with PEPTIDE1 are HELM notation: dots part the residues, brackets hold end groups and non-standard residues.

Assay: general procedure: solution-phase peptide synthesis; PyBroP/DIEA; WSCD.HCl/HOObt
Details: late stage modification step, HCl salt (deprotected intermediates)

## PEPTIDE1{[GluOnBu].[MeVal].L.[bHOMeVal].[D-Hmp].[MeVal].F.[MePhe].P}$PEPTIDE1,PEPTIDE1,1:R1-9:R2$$$V2.0
  step yield: 95.2%
